Literature values, collected in patent US20250090522A1 (priority 2021, published 2025).

Conditions: in vivo

Compound: O=C(O)COCCN1CCN([C@H](c2ccccc2)c2ccc(Cl)cc2)CC1 [Levocetirizine]
- time to peak plasma level: 0.9 h
